Publication PMC8264492
Results are given in words; binding and its absence hold for the method and conditions named. In cells and extracts the contact can be indirect. Some binding calls cover weakened binding; strength is not graded here. For some of these results: Where a sequence is shown, tags or fusion partners need not be part of it.

The chains behind the UniProt entries cited, without tags or fusion partners.
UniProt O75925: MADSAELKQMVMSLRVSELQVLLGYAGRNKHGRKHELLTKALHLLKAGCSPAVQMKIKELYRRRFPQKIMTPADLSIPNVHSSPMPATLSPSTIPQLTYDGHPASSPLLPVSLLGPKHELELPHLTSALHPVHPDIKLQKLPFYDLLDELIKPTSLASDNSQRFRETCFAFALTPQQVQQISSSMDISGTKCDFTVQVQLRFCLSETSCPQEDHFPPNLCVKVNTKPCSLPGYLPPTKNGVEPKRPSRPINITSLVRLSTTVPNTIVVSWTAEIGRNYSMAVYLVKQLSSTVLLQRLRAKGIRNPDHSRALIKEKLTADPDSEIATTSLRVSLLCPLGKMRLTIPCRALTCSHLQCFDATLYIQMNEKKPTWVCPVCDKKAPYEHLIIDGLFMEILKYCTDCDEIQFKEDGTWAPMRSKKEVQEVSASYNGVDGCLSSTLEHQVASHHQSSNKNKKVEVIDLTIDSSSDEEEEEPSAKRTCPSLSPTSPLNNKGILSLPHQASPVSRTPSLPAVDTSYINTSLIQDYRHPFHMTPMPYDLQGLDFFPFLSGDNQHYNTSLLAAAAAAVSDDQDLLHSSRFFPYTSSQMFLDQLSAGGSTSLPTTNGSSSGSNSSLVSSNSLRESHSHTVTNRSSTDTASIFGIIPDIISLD
UniProt O75928: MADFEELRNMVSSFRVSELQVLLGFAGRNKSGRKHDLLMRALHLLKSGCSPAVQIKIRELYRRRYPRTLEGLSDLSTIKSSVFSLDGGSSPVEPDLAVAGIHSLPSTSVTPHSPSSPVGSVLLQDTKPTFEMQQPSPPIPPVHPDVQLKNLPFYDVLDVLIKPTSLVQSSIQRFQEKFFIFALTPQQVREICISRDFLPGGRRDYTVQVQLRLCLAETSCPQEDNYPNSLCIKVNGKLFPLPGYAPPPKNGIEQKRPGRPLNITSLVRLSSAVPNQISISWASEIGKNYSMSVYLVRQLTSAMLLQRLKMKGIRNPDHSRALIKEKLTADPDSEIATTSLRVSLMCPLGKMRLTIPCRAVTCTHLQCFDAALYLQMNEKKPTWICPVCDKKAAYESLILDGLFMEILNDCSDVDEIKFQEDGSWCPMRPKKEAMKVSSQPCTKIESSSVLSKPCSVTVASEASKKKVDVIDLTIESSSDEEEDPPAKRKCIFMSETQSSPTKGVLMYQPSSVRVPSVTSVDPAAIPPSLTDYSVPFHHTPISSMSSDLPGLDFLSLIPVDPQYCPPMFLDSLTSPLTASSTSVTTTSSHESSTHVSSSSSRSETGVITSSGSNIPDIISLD
UniProt Q9Y3Z3: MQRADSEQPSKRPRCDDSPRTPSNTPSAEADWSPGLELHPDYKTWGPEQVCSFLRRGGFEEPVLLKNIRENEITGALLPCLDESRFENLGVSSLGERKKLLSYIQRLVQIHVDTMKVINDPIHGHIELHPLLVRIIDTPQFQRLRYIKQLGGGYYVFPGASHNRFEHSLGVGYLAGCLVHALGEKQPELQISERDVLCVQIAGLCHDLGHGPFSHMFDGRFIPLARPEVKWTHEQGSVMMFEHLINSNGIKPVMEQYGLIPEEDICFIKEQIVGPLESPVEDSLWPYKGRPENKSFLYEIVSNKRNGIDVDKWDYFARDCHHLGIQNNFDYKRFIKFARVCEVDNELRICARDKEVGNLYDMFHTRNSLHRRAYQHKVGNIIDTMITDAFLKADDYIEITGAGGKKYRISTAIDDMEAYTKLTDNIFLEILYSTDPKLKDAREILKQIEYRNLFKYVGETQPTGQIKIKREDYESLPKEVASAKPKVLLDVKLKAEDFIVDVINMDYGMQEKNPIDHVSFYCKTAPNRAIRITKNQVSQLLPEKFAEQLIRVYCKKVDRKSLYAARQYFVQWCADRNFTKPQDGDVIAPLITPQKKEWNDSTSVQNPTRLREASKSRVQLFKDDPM

What was measured:
Assay in all cases: co-IP; 293 T cells co-transfected with SAMHD1 and a V5-tagged PIAS protein or PIAS1 truncation mutant; harvested 48 h after transfection, lysed in RIPA buffer (50 mM Tris-HCl, 150 mM NaCl, 1% NP40, 1% deoxycholate, 0.1% SDS, 1 mM EDTA); PIAS precipitated, SAMHD1 detected by WB
V5-tagged PIAS4 = target: T1, V5-tagged PIAS4 (UniProt Q8N2W9)
T1 sequence: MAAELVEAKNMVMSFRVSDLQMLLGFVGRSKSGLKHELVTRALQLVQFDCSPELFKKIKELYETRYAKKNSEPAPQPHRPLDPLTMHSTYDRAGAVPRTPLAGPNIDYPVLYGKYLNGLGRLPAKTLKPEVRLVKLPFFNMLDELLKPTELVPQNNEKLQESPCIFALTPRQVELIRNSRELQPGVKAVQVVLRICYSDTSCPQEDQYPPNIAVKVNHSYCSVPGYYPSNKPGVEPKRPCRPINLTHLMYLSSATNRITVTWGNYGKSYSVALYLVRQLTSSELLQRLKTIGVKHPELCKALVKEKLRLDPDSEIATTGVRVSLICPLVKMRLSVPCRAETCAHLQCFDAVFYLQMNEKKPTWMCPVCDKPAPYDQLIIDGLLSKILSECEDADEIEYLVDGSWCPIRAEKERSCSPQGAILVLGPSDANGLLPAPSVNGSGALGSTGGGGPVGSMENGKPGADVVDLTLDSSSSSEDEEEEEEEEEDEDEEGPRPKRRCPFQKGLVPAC

[1] = target: V5-tagged full length PIAS1 (aa 1-651) (UniProt O75925)
V5-tagged PIAS3 = target: T2, V5-tagged PIAS3 (UniProt Q9Y6X2)
T2 sequence: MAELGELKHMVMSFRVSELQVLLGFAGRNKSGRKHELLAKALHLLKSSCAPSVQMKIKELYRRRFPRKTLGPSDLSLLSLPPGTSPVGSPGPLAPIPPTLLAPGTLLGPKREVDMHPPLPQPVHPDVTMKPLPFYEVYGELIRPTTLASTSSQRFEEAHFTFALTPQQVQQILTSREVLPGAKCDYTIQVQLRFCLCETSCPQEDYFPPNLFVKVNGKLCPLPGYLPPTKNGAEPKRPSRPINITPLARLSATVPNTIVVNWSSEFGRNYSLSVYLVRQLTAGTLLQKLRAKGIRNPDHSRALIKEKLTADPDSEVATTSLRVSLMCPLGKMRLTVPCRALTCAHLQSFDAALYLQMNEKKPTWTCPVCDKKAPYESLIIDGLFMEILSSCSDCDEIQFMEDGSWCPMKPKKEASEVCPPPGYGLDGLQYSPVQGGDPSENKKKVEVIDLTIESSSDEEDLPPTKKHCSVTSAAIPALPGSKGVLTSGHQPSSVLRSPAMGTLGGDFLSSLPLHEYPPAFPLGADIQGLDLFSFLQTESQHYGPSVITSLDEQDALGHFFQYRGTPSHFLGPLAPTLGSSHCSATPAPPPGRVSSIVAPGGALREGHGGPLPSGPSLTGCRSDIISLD

V5-tagged PIAS2 = V5-tagged PIAS2 (UniProt O75928)

binding (V5-tagged PIAS4): binds | binding [1]: binds | binding (V5-tagged PIAS3): binds | binding (V5-tagged PIAS2): binds
Substance: Sterile alpha motif and HD domain 1 (SAMHD1), transfected (from UniProt Q9Y3Z3 1-626)
